# No constants are given. Whether binding was seen depends on the method and setting. Binding seen in cells or lysates may run through a third protein. Some results given as binding are weak or reduced against the parent protein; the word gives no strength.
# Protein sequences, listed by entry. Tags and fused reporters are not part of them.
# UniProt P35222: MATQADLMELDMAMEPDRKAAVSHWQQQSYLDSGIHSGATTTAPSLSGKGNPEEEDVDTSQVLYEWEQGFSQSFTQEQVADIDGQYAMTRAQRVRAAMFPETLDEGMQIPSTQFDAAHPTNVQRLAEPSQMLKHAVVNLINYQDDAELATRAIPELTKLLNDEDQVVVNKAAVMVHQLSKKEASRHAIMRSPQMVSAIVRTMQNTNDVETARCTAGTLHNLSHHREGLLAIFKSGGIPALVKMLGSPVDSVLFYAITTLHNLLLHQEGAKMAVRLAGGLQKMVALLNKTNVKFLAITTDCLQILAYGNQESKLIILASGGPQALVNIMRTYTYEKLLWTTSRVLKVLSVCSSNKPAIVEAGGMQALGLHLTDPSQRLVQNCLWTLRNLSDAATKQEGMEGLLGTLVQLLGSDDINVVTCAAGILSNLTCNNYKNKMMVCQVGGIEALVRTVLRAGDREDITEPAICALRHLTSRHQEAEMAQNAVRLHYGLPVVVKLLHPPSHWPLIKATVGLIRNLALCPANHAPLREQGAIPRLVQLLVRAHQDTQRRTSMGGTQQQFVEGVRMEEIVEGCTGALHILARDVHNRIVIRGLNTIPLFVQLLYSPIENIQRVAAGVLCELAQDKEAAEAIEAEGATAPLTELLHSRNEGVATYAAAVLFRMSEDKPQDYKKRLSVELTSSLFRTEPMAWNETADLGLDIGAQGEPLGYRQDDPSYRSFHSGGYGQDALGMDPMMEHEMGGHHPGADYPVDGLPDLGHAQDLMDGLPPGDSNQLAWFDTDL
# UniProt P56693: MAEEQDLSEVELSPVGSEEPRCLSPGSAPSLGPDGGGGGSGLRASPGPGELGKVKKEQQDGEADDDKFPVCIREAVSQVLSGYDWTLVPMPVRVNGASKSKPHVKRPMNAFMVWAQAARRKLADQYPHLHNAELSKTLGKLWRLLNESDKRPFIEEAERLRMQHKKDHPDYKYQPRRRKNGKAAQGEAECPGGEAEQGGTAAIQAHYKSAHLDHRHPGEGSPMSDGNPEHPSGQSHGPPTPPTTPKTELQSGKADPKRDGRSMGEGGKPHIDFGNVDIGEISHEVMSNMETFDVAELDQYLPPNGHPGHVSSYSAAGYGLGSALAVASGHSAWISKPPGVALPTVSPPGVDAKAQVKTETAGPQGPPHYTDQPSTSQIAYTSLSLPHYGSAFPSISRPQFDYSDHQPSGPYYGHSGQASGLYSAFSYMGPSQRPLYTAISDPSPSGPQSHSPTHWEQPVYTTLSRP
# How the values were obtained:
# [1] = molecular target: endogenous β-catenin (human (endogenous in HCT116 and 293T)) (UniProt P35222); experiment: co-IP; whole-cell extracts of HCT116 cells transfected with V5-tagged SOX10; immunoprecipitated with anti-V5 or anti-β-catenin (IgG as negative control), western blot
# GST-tagged β-catenin = GST-tagged β-catenin (UniProt P35222); experiment: pull-down; GST or GST-β-catenin (glutathione-sepharose beads) incubated with SOX10 protein extracted from 293T cells transfected with pcSOX10, 1 hour at 4°C; SDS-PAGE and western blot; only the target purified
# [2] = molecular target: V5-tagged SOX10 (wild type) (human) (UniProt P56693); experiment: co-IP; whole-cell extracts of HCT116 cells transfected with V5-tagged SOX10; immunoprecipitated with anti-V5 or anti-β-catenin (IgG as negative control), western blot
# [3] = molecular target: V5-tagged SOX10 (wild type) (human) (UniProt P56693); experiment: co-IP; whole-cell extracts of cells expressing V5-SOX10 or its mutants (3G, DB, 482ins6); endogenous β-catenin; cell line (HCT116 or 293T) and precipitating antibody not stated for this panel (Figure 6B)
binding [1],binding (GST-tagged β-catenin),binding [2],binding [3],Substance
binds,binds,,,V5-tagged SOX10 (wild type) (from UniProt P56693 1-466)
,,binds,binds,endogenous β-catenin (from UniProt P35222 1-781)

# Reference: publication PMC4279394
